This is an account of results in publication PMC12765265.

By UniProt entry, the sequences of proteins in these tests, tags left out.
UniProt O95071: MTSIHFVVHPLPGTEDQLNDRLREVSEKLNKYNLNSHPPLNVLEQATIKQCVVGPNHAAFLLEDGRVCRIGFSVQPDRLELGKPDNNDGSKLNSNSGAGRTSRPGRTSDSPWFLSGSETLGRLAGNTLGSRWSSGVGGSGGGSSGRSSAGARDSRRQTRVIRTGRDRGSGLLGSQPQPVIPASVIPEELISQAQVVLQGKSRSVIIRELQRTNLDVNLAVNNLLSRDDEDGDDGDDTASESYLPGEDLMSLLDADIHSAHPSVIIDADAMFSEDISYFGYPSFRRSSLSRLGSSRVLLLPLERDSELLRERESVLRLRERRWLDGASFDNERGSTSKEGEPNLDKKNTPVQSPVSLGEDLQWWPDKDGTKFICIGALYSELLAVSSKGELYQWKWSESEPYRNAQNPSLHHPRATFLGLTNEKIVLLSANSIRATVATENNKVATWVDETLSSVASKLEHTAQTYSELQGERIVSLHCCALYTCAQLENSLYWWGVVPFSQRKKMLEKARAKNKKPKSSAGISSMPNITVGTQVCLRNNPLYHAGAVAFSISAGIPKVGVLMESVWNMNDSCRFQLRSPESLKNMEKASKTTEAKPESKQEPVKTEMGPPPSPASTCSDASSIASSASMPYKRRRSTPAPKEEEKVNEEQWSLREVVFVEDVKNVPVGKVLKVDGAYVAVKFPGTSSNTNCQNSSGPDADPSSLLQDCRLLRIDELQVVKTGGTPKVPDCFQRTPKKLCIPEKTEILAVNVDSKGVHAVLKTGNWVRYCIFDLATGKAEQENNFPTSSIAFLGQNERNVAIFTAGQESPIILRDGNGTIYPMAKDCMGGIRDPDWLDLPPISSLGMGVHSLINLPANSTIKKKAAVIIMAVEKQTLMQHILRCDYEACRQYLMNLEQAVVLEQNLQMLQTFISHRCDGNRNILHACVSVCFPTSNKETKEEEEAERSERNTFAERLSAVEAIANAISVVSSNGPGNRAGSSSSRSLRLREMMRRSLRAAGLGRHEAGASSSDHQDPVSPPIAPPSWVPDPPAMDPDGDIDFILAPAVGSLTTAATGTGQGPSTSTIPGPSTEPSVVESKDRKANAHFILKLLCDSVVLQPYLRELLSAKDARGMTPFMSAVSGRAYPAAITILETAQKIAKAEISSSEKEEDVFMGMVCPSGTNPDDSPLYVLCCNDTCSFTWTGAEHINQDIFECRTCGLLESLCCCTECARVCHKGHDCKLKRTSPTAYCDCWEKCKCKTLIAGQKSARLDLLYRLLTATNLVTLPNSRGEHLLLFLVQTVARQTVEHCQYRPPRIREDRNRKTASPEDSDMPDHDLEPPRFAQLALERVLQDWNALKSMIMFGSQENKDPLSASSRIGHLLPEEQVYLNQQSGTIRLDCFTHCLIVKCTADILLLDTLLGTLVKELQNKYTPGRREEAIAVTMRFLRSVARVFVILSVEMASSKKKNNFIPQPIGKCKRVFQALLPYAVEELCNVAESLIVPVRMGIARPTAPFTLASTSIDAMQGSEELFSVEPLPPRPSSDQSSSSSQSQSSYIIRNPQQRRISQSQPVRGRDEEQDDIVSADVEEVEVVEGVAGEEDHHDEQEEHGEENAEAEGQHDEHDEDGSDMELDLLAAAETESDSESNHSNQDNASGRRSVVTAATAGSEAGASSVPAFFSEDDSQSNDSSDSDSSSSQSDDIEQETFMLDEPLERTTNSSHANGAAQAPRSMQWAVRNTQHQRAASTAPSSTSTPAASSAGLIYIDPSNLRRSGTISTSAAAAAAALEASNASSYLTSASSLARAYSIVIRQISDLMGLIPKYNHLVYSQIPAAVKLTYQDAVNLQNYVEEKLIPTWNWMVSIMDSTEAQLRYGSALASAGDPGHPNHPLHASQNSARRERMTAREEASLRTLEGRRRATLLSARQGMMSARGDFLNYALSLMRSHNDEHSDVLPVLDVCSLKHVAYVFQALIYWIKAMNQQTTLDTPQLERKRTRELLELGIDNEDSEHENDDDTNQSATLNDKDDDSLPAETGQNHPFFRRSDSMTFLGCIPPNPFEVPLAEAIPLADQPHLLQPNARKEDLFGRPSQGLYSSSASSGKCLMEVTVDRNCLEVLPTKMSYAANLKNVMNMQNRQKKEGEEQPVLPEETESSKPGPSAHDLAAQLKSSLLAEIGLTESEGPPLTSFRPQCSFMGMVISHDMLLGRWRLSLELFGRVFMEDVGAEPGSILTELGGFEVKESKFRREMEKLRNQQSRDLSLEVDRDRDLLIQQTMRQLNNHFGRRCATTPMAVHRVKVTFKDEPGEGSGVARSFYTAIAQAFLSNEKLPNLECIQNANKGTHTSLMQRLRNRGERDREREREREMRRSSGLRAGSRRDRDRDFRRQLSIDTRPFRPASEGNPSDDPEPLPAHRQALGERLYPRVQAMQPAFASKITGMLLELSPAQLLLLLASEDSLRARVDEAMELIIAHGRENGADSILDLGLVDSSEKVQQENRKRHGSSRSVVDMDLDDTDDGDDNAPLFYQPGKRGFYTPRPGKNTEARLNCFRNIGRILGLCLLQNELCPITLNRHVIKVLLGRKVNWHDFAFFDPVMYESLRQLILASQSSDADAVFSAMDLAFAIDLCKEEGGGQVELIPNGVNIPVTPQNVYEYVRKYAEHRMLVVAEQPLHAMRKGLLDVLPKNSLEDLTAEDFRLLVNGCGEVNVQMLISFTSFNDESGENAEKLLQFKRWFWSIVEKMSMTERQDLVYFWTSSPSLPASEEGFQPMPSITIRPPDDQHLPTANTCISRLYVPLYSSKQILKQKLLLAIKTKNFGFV

These are yes or no findings as the source states them, for the method shown. In cells and extracts the contact can be indirect.

The target of the assay is Myc-tagged UBR5 (ubiquitin protein ligase E3 component N-recognin 5), wild type (UniProt O95071). The experiment in a line: co-IP; HEK293T co-transfected, 10 uM MG132 for 6 h; lysates immunoprecipitated with anti-Flag or anti-Myc at 4 °C overnight, protein A/G agarose; 150 mM NaCl, 50 mM Tris pH 7.5, 10% glycerol; western blot. A general note: In western blotting, separated proteins are transferred to a membrane and probed.

B1: Slug (protein, UniProt O43623 1-268)
chain: MPRSFLVKKHFNASKKPNYSELDTHTVIISPYLYESYSMPVIPQPEILSSGAYSPITVWTTAAPFHAQLPNGLSPLSGYSSSLGRVSPPPPSDTSSKDHSGSESPISDEEERLQSKLSDPHAIEAEKFQCNLCNKTYSTFSGLAKHKQLHCDAQSRKSFSCKYCDKEYVSLGALKMHIRTHTLPCVCKICGKAFSRPWLLQGHIRTHTGEKPFSCPHCNRAFADRSNLRAHLQTHSDVKKYQCKNCSKTFSRMSLLHKHEESGCCVAH
Regarding B1, the binding result is “no binding”.
